Measurements reported in article PMC2712759, “Hsp70 Chaperones and Type I PRMTs Are Sequestered at Intranuclear Inclusions Caused by Polyalanine Expansions in PABPN1” (PLoS ONE, 2009).
No constants are given. Whether binding was seen depends on the method and setting. Binding seen in cells or lysates may run through a third protein. Some entries that bind do so weakly or less than the wild type. Where a sequence is shown, tags or fusion partners need not be part of it.

Assays:
[1] = biological target: T1, expanded human PABPN1, tract of 17 alanine residues, His-tagged, biotinylated (human) (UniProt Q86U42); assay: pull-down; biotinylated His-PABPN1 (2 µg) on streptavidin-agarose beads, incubated with RNase A-treated extracts of C2 myoblasts and myotubes, 4 h at 4°C, 20 mM Tris pH 8.0, 200 mM KCl, 10% glycerol; bound proteins detected by immunoblot; only the target purified
T1 sequence (chain, biotin (EZ-Link PEO-Maleimide Activated Biotin)): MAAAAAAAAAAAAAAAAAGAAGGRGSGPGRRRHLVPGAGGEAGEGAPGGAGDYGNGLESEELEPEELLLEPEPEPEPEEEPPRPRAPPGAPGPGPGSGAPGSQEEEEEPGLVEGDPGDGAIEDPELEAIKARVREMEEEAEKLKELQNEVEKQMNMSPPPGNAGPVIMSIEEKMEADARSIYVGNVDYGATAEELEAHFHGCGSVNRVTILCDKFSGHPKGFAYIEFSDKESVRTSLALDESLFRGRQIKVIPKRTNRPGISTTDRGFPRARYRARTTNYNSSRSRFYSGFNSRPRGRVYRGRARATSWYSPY

[2] = biological target: T2, normal human PABPN1 (poly(A)-binding protein nuclear 1), homopolymer of 10 alanine residues, His-tagged, biotinylated (human) (UniProt Q86U42); assay: as above
T2 sequence (chain, biotin (EZ-Link PEO-Maleimide Activated Biotin)): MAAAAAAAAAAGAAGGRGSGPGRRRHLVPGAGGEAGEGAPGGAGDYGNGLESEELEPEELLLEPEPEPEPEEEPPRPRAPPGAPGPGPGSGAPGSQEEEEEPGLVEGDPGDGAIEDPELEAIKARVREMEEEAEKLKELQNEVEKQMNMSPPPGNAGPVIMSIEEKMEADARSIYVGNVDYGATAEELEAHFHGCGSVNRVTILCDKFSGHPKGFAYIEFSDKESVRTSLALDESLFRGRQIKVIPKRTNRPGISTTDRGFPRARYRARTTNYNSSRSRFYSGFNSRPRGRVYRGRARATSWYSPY

- binding [1]: binds
- binding [2]: binds
B1: Ski-interacting protein (SKIP) (protein, UniProt Q9CSN1 1-536)
chain: MALTSFLPAPTQLSQDQLEAEERARSQRSLQTSLVSSRREPPPYGYRKGWIPRLLEDFGDGGAFPEIHVAQYPLDMGRKKKMSNALAIQVDPEGKIKYDAIARQGQSKDKVIYSKYTDLVPKEVMNADDPDLQRPDEEAIKEITEKTRVALEKSVSQKVAAAMPVRAADKLAPAQYIRYTPSQQGVAFNSGAKQRVIRMVEMQKEPMEPPRFKINKKIPRGPPSPPAPVMHSPSRKMTVKEQQEWKIPPCISNWKNAKGYTIPIDKRLAADGRGLQTVHINENFAKLAEALYIADRKAREAVEMRAQVERKMAQKEKEKHEEKLREMAQKARERRAGIKTHVEKEDGEARERDEIRHDRRKERQHDRNLSRAAPDKRSKLQRNENRDISEVIALGVPNPRTSNEVQYDQRLFNQSKGMDSGFAGGEDEIYNVYDQAWRGGKDMAQSIYRPSKNLDKDMYGDDLEARIKTNRFVPDKEFSGSDRKQRGREGPVQFEEDPFGLDKFLEEAKQHGGSKRPSDSSRPKEHEHEGKKRRKE
